This is one part of the list. Further columns of the screen follow, without active or inactive calls. Most of these compounds were active or inconclusive in the main read-out, so they are no random draw. Words in brackets tell the shape of the fitted curve; partial curves, single points and poor fits give uncertain potencies.
Experiment: qHTS Assay to Find Inhibitors of Chronic Active B-Cell Receptor Signaling
Settings: ABC-DLBCL IkBa-CBG/CBR reporter, luminescence ratio (green luciferase fused to IkBa over red control in TMD8 lymphoma cells), 4 h
Procedure, shortened: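 Doxycycline induced both beetle luciferases in TMD8 lymphoma cells; IKK-driven degradation limits the IkappaBalpha-fused green signal, while red luminescence normalises for cell number and nonspecific effects. Compounds tested up to 46 uM, 4 hrs.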

[1] = measured here: CBR red luminescence, cell number
[2] = measured here: IkBa-CBG green luminescence

Question: With O=C(N/N=C/c1ccoc1)c1ccccc1 as the compound, how does the AC50 [1] read?
Answer: 7.08 µM [falling, partial curve]

Question: With CC1CCC2(CC1)NC(=O)N(CC(=O)c1cn(CCC#N)c3ccccc13)C2=O (centres undefined) as the compound, how does the AC50 [1] read?
Answer: 5.62 µM [falling, full curve, poor fit]

Question: Which AC50 [1] does the source give for COc1ccc(S(=O)(=O)N(C(=O)c2ccco2)c2cc3sc(=O)oc3c3ccccc23)cc1 here?
Answer: 29.1 µM [falling, single point]

Question: With COc1ccc(NC(=O)Nc2cccc(C)n2)c(OC)c1 as the compound, how does the AC50 [1] read?
Answer: 1.41 µM [rising, full curve]

Question: With N#C/C(=C\c1ccc(OCc2ccc(C(=O)O)cc2)cc1)C(=O)N1CCOCC1 as the compound, how does the AC50 [1] read?
Answer: 20.6 µM [falling, partial curve]

Question: Which AC50 [1] does the source give for COc1ccc(-c2nc(CSCC(=O)NCc3ccco3)c(C)o2)cc1 here?
Answer: 35.5 µM [falling, single point]

Question: Which AC50 [1] does the source give for O=C1CN(C(=O)COC(=O)c2ccc(Cl)cc2)c2ccccc2N1 here?
Answer: 1.64 µM [rising, full curve]

Question: For COCC1CCN(C(=O)C2CCN(c3nc(-c4ccccc4)nc4c3CCC4)CC2)C1 (centres undefined), which AC50 [1] is on record?
Answer: 20 µM [falling, single point]

Question: For CCC1(CC)Cc2ccccc2C(C2=C(O)CC(C)(C)CC2=O)=N1, which AC50 [1] is on record?
Answer: 5.8 µM [rising, partial curve]

Question: Which AC50 [1] does the source give for Cc1cccc(NC(=O)NC(C)CCc2ccccc2)c1 (centres undefined) here?
Answer: 0.00517 µM [rising, full curve, poor fit]

Question: With O=C(CCc1ccccc1)Nc1ccc2c(c1)OCCO2 as the compound, how does the AC50 [1] read?
Answer: 11.2 µM [falling, partial curve]

Question: With NC(=O)COc1ccc(C(=O)/C=C2/C(=O)Nc3ccccc32)cc1 as the compound, how does the AC50 [1] read?
Answer: 7.94 µM [falling, partial curve, poor fit]

Question: Which AC50 [1] does the source give for C(=Nc1ccc(N2CCOCC2)cc1)c1c[nH]c2ccccc12 here?
Answer: 0.1 µM [rising, full curve, poor fit]

Question: For CCc1ccc(OCCOC(=O)Nc2ccccc2)cc1, which AC50 [1] is on record?
Answer: 35.5 µM [rising, single point]

Question: Which AC50 [1] does the source give for Nc1ccc(SC(F)(F)F)cc1 here?
Answer: 3.55 µM [falling, partial curve, poor fit]

Question: For O=C(Nc1ccc(F)c([N+](=O)[O-])c1)C(=O)c1c(O)[nH]c2ccccc12, which AC50 [1] is on record?
Answer: 1.26 µM [falling, full curve]

Question: For C/C(Cn1cnc([N+](=O)[O-])n1)=N\NC(=O)c1cccnc1, which AC50 [1] is on record?
Answer: 18.4 µM [falling, single point]

Question: Which AC50 [1] does the source give for COc1ccc(NCc2nc3ccccc3n2CCOc2ccc(C)cc2)cc1 here?
Answer: 3.66 µM [falling, full curve]

Question: Which AC50 [1] does the source give for COc1ccc(C(=O)/C=C/C(=O)N(Cc2ccc3c(c2)OCO3)C(C(=O)NC2CCCCC2)c2ccncc2)c(O)c1 (centres undefined) here?
Answer: 29.1 µM [falling, single point]

Question: For Cc1ccccc1SCC(=O)Nc1cccc(C#N)c1, which AC50 [1] is on record?
Answer: 14.6 µM [rising, partial curve, poor fit]

Question: For CCOc1cccc(CNCCO)c1OCc1ccc(Cl)cc1Cl, which AC50 [1] is on record?
Answer: 23.1 µM [falling, partial curve, poor fit]

Question: For CCCCc1nnc(NC(=O)C2=COCCO2)s1, which AC50 [1] is on record?
Answer: 22.4 µM [falling, single point]

Question: Which AC50 [1] does the source give for c1ccc(Nc2ccccc2)cc1 here?
Answer: 29.1 µM [rising, single point]

Question: Which AC50 [1] does the source give for COC(=O)Nc1ccc(S(=O)(=O)Nc2ccc(C)cc2)cc1 here?
Answer: 29.1 µM [falling, single point]

Question: Which AC50 [1] does the source give for O=C(CC1S/C(=N/N=C/c2ccco2)NC1=O)Nc1ccccc1 (centres undefined) here?
Answer: 10 µM [rising, partial curve, poor fit]

Question: For O=C(c1ccc2c(c1)OCO2)N1CCC2(CC1)Oc1ccc(Cl)cc1C(=O)C21CC(c2cccnc2)=NO1 (centres undefined), which AC50 [1] is on record?
Answer: 17.8 µM [falling, single point]

Question: Which AC50 [1] does the source give for COc1ccc(O)c(-c2nc(N)nc(N)n2)c1 here?
Answer: 10.3 µM [falling, partial curve]

Question: What about the AC50 [2] of the same compound?
Answer: 8.2 µM [rising, partial curve, poor fit]

Question: With Nc1ccccc1SCc1cn2ccccc2n1 as the compound, how does the AC50 [1] read?
Answer: 4.61 µM [rising, single point]

Question: Which AC50 [1] does the source give for O=C(N/N=C/c1ccc2c(c1)OCCO2)c1ccncc1 here?
Answer: 12.6 µM [falling, partial curve]

Question: For CC(C)(C)c1ccc(C(=O)Oc2ccc3c(c2)OCC3=O)cc1, which AC50 [1] is on record?
Answer: 18.4 µM [rising, single point]

Question: For Cc1nn(C(C)C(=O)NNC(=S)Nc2ccc(Cl)cc2)c(C)c1[N+](=O)[O-] (centres undefined), which AC50 [1] is on record?
Answer: 16.4 µM [rising, single point]

Question: For COc1ccc(-c2cc(-c3ccc(OC)c(OC)c3)n[nH]2)c(O)c1, which AC50 [1] is on record?
Answer: 16.4 µM [falling, partial curve]

Question: What does the source list for CCOC(=O)c1c(C)n(C)c2ccc(OC)c(NC(=O)CN3CCN(C(=O)c4ccco4)CC3)c12?
Answer: AC50 [1]: 10 µM [rising, partial curve]; AC50 [2]: 10 µM [falling, partial curve]

Question: With COc1ccc(NS(=O)(=O)c2ccc3ccccc3c2)c2ncccc12 as the compound, how does the AC50 [2] read?
Answer: 3.55 µM [falling, partial curve, poor fit]

Question: For Cc1cccc(NC(=O)c2ccc(F)c(S(=O)(=O)N(C)C3CCCCC3)c2)c1, which AC50 [1] is on record?
Answer: 17.8 µM [falling, partial curve, poor fit]

Question: And the AC50 [2]?
Answer: 17.8 µM [rising, single point]

Question: Which AC50 [1] does the source give for Clc1ccccc1CN(Cc1ccco1)Cc1nnnn1C1CCCC1 here?
Answer: 20.6 µM [falling, partial curve, poor fit]

Question: For CN1CCN(C(=O)c2ccccc2N(Cc2ccccc2)S(C)(=O)=O)CC1, which AC50 [1] is on record?
Answer: 2.59 µM [rising, single point]

Question: With O=Cc1[nH]c2ccccc2c1N(C(=O)CCl)c1ccc([N+](=O)[O-])cc1 as the compound, how does the AC50 [1] read?
Answer: 35.5 µM [falling, single point]

Question: What about the AC50 [2] of the same compound?
Answer: 12.6 µM [rising, partial curve, poor fit]

Question: With Cc1cc(NC(=O)CSc2nnc(-c3ccc(S(=O)(=O)N4CCCC4)cc3)n2C)no1 as the compound, how does the AC50 [1] read?
Answer: 20 µM [rising, single point]

Question: Which AC50 [1] does the source give for Cc1ccc2cc(CCNC(=O)C3CCCC3)c(=O)[nH]c2c1 here?
Answer: 2.06 µM [rising, full curve, poor fit]

Question: Which AC50 [1] does the source give for COc1cc(/C=N/Nc2nc3ccccc3s2)ccc1O here?
Answer: 15.8 µM [falling, single point]

Question: For CC(=O)c1sc(NC(=O)c2cc(=O)c3ccccc3o2)nc1C, which AC50 [1] is on record?
Answer: 0.355 µM [falling, full curve]

Question: Which AC50 [1] does the source give for O=C(Cc1ccccc1)Nc1nnc(-c2cccc([N+](=O)[O-])c2)s1 here?
Answer: 16.4 µM [rising, single point]

Question: For COc1ccc(S(=O)(=O)N2CCN=C2SCc2cccc(C)c2)cc1, which AC50 [1] is on record?
Answer: 6.31 µM [rising, full curve]

Question: For CCC(C(=O)OCC(=O)c1ccc(OC)cc1OC)c1ccccc1 (centres undefined), which AC50 [1] is on record?
Answer: 20.6 µM [rising, partial curve, poor fit]

Question: With Cc1cc2ncc(-c3cccs3)nc2cc1C as the compound, how does the AC50 [1] read?
Answer: 4.47 µM [rising, partial curve]

Question: With C[C@]12CC[C@@H]3c4ccc(O)cc4CC[C@H]3[C@@H]1CC[C@@H]2O as the compound, how does the AC50 [1] read?
Answer: 16.4 µM [rising, single point]

Question: What about the AC50 [2] of the same compound?
Answer: 16.4 µM [falling, single point]

Question: For Fc1ccc(C2c3cccn3CCN2C(=S)Nc2cccc(F)c2)cc1 (centres undefined), which AC50 [1] is on record?
Answer: 20 µM [falling, single point]

Question: Which AC50 [1] does the source give for CCOC(=O)c1[nH]c(C)c(C(=O)OCC(=O)NC(=O)NC(C)(C)C)c1C here?
Answer: 2.91 µM [falling, full curve, poor fit]

Question: For COc1ccccc1/C=C/[C@@H]1C[C@H]2CN(Cc3cccc(Cl)c3)C(=O)[C@]23CCCN13, which AC50 [1] is on record?
Answer: 11.2 µM [falling, partial curve, poor fit]

Question: For C=CCc1ccc(OCCOc2ccc(/C=N/n3cnnc3)cc2OCC)c(OC)c1, which AC50 [2] is on record?
Answer: 20.6 µM [falling, partial curve, poor fit]

Question: With O=S(=O)(Nc1cccc(CCc2ccccn2)c1)c1ccc(Cl)cc1 as the compound, how does the AC50 [1] read?
Answer: 5.01 µM [falling, single point]

Question: Which AC50 [1] does the source give for Cc1cc(C)n2c(SCCO)nnc2n1 here?
Answer: 1 µM [falling, partial curve, poor fit]

Question: With O=C(NCC1CCCO1)C(c1cccs1)N(Cc1cccs1)C(=O)c1ccc(-c2ccccc2)[nH]1 (centres undefined) as the compound, how does the AC50 [1] read?
Answer: 32.6 µM [falling, single point]

Question: With O=c1c2c3c(sc2nc(NCCO)n1CCc1ccccc1)CCCCC3 as the compound, how does the AC50 [1] read?
Answer: 13 µM [rising, partial curve, poor fit]

Question: For COc1ccccc1NS(=O)(=O)c1ccc(C)c(NC(=O)NCCCl)c1, which AC50 [1] is on record?
Answer: 31.6 µM [falling, single point]

Question: With Cc1cccc(-c2nsc(SCC(=O)c3ccc(Cl)cc3)n2)c1 as the compound, how does the AC50 [1] read?
Answer: 32.6 µM [rising, single point]

Question: With N#CCCN(C(=O)COC(=O)CCc1nc2ccccc2c(=O)[nH]1)c1ccc(F)cc1 as the compound, how does the AC50 [1] read?
Answer: 20.6 µM [falling, single point]

Question: For CC(CCc1ccccc1)NC(=O)COC(=O)c1ccc(NC(=O)CC#N)cc1 (centres undefined), which AC50 [1] is on record?
Answer: 35.5 µM [falling, single point]

Question: For O=C(Nc1ccccc1)c1cc([N+](=O)[O-])ccc1Cl, which AC50 [1] is on record?
Answer: 0.112 µM [falling, full curve, poor fit]

Question: Which AC50 [1] does the source give for CCn1c(=O)c(C(=O)Nc2ccccc2C)c(O)c2ccccc21 here?
Answer: 0.116 µM [falling, full curve, poor fit]

Question: With COc1ccc(NC(=O)CNc2ccc(C#N)cc2)cc1 as the compound, how does the AC50 [1] read?
Answer: 22.4 µM [falling, single point]

Question: For COc1cc(NC(=S)N(C)C)c(OC)cc1Cl, which AC50 [1] is on record?
Answer: 3.98 µM [falling, partial curve, poor fit]

Question: For O=C(c1c[nH]c2ccccc12)C(Cl)c1ccccc1 (centres undefined), which AC50 [1] is on record?
Answer: 4.47 µM [falling, partial curve, poor fit]
